No constants are given. Whether binding was seen depends on the method and setting.
Target: MutLγ (MLH1-MLH3) heterodimer, human (human) (UniProt P40692+Q9UHC1)
Assay: condition: 1 µg of recombinant MBP-FAN1-MIP-MIM in 70 µl; pull-down; 1 µg recombinant MLH1-MLH3 held by anti-MLH1 antibody on protein G magnetic beads; 1 µg MSH2-MSH3, MBP-FAN1 or MBP-FAN1-MIP-MIM added alone, or MSH2-MSH3 for 20 min followed by MBP-FAN1 or MBP-FAN1-MIP-MIM, in 70 µl immunoprecipitation buffer (25 mM Tris-HCl pH 7.5, 3 mM EDTA, 1 mM DTT, 0.2 µg/µl albumin, 70 mM NaCl), 4 °C, 1 h in all; washes with 100 mM NaCl, 0.1% Triton X-100; western blot (anti-MBP, anti-FLAG); both purified

The chains behind the UniProt entries cited, without tags or fusion partners. Where a name states a change or a piece, a line headed by the entry shows the natural chain unless it says otherwise.
UniProt P40692: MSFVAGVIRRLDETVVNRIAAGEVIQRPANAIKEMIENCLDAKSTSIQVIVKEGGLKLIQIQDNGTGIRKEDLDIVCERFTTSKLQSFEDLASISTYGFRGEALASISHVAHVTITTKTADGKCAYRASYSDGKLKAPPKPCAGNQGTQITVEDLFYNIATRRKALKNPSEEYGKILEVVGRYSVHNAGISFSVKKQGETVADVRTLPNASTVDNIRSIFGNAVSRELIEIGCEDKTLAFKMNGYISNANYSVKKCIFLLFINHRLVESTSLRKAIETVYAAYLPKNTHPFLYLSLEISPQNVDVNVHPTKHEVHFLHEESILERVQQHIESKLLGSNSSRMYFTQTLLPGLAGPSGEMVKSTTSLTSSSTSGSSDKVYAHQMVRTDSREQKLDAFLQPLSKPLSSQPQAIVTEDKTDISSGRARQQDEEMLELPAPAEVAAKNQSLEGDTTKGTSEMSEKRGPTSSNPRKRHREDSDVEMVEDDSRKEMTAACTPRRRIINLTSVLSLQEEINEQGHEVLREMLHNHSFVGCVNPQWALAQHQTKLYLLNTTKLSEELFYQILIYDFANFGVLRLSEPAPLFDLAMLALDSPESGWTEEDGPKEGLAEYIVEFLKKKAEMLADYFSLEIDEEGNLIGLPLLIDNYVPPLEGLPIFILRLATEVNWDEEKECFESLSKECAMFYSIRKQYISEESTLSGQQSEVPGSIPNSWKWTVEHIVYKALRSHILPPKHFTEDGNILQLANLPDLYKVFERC
UniProt Q9UHC1: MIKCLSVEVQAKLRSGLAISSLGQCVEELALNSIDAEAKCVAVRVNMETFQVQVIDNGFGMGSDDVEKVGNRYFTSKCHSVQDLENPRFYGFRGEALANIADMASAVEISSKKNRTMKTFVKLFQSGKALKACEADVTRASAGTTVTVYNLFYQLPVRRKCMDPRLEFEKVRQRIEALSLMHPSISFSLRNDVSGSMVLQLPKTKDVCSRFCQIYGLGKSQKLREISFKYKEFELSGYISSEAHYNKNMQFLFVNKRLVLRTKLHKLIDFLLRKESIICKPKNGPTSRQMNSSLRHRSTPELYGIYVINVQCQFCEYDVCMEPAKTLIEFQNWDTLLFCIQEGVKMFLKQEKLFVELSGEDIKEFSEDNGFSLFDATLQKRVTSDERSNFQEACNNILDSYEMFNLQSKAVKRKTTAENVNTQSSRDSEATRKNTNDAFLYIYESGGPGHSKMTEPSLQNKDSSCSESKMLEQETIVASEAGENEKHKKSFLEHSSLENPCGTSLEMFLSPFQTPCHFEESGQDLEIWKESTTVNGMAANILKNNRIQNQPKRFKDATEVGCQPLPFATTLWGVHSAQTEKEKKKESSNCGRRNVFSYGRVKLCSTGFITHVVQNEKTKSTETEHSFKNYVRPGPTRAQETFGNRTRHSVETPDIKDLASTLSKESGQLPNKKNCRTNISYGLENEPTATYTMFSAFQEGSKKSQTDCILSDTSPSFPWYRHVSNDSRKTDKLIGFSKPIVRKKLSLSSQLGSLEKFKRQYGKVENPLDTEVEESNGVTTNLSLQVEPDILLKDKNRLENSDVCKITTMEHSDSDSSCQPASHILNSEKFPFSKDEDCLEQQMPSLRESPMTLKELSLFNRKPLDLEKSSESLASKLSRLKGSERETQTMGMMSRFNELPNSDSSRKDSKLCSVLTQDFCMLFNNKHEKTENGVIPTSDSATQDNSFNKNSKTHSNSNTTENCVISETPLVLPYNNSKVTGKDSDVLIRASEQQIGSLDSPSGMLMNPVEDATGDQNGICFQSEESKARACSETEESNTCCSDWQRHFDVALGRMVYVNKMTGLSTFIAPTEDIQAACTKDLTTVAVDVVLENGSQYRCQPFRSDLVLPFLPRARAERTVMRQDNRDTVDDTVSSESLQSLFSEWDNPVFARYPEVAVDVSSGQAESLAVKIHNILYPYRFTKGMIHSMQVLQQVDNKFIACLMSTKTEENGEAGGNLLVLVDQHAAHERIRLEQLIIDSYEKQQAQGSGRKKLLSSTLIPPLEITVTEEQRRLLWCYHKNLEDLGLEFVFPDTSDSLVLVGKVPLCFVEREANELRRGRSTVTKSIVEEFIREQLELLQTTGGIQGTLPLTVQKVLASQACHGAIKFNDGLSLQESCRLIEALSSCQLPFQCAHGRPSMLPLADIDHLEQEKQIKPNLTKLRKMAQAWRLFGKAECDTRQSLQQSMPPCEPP

- binding: no binding
Substance: MBP-tagged MLH1-binding defective FAN1 MIP-MIM (Y128A, F129A, L155A, L159A) (from UniProt Q9Y2M0 1-1017) (enzyme)
